Data on 1 molecule can be found in article PMC3116825.

In the test the target is Polymerized microtubules. Kind of test: co-sedimentation; microtubule pelleting assay: polymerized microtubules incubated with lysates of NIH/3T3 cells overexpressing the V5-tagged proteins, centrifuged at 100 000 x g; control samples without microtubules; only the target purified.

No constants are given. Whether binding was seen depends on the method and setting. Binding seen in cells or lysates may run through a third protein. Binding can be weak; no strength is given. Tags and fused reporters may be left off the sequences shown.

B1: Full-length V5-tagged human DCDC2 (protein, UniProt Q9UHG0 1-476)
chain: MSGSSARSSHLSQPVVKSVLVYRNGDPFYAGRRVVIHEKKVSSFEVFLKEVTGGVQAPFGAVRNIYTPRTGHRIRKLDQIQSGGNYVAGGQEAFKKLNYLDIGEIKKRPMEVVNTEVKPVIHSRINVSARFRKPLQEPCTIFLIANGDLINPASRLLIPRKTLNQWDHVLQMVTEKITLRSGAVHRLYTLEGKLVESGAELENGQFYVAVGRDKFKKLPYSELLFDKSTMRRPFGQKASSLPPIVGSRKSKGSGNDRHSKSTVGSSDNSSPQPLKRKGKKEDVNSEKLTKLKQNVKLKNSQETIPNSDEGIFKAGAERSETRGAAEVQEDEDTQVEVPVDQRPAEIVDEEEDGEKANKDAEQKEDFSGMNGDLEEEGGREATDAPEQVEEILDHSEQQARPARVNGGTDEENGEELQQVNNELQLVLDKERKSQGAGSGQDEADVDPQRPPRPEVKITSPEENENNQQNKDYAAVA
Turning to B1, the binding entry was “binds”.
